Test results from PubChem BioAssay AID2685 (National Center for Advancing Translational Sciences (NCATS), 2010).
This is one part of the list. Further columns of the screen follow, without active or inactive calls. The list favours compounds with an active or inconclusive main result. Words in brackets tell the shape of the fitted curve; partial curves, single points and poor fits give uncertain potencies.

Test: qHTS Assay for Lipid Storage Modulators in Drosophila S3 Cells;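 as to cell number change: cells counted by Cell Tracker Red CMTPX staining in the red channel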
Settings: BODIPY lipid droplet fluorescence, 18-24 h; for cell number change: measured here: cell count max response, cells fed with added oleic acid
Method in brief: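 Drosophila S3 cells got compounds at several concentrations plus oleic acid (400 uM solution). Laser-scanning cytometry with 488 nm excitation read lipid droplets at 500-530 nm and cells at 575-640 nm. Percent activity was relative to 20 uM Triacsin C.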

[1] = measured here: cell number channel AC50, cells fed with added oleic acid
[2] = measured here: lipid fluorescence (Fed channel) AC50, cells fed with added oleic acid

Row | Structure (SMILES) | cell number change | AC50 [1] | AC50 [2]
1 | Cc1ccc(C(=O)Nc2ccc(N3CCN(S(C)(=O)=O)CC3)cc2)cc1 | -73.5% | 29.1 µM [falling, single point] | 10.3 µM [falling, single point]
2 | CCCC(=O)Nc1ccc(-c2nc3cc(C)ccc3o2)cc1 | -11.6% | – | 2.06 µM [rising, partial curve]
3 | Cc1cc(=O)oc2cc(NC(=O)C(C)Oc3ccc(F)cc3)ccc12 (configuration not stated) | 41.7% | 11.6 µM [rising, partial curve] | 20.6 µM [rising, single point]
4 | CC(C)c1nn2c(=O)cc(COc3cccc(NC(=O)c4ccco4)c3)nc2s1 | – | – | 6.51 µM [falling, full curve]
5 | CCCCOC(=O)CSC1=C(C#N)C(c2cccnc2)C(C(=O)OCC)=C(c2ccccc2)N1 (configuration not stated) | 4.75% | 1.3 µM [rising, full curve, poor fit] | –
6 | CC1CCN(c2ccc(-c3ccc(NC(=O)c4ccco4)cc3)nn2)CC1 | 22.8% | – | 16.4 µM [rising, partial curve, poor fit]
7 | COc1ccc(S(=O)(=O)Nc2ccc(-c3ccc(N4CCCC4)nn3)cc2)cc1C | 7.07% | 4.11 µM [rising, single point] | –
8 | O=C(Nc1ccccc1)OCc1cc(-c2ccccc2Cl)on1 | 18.2% | – | 6.51 µM [rising, single point]
9 | O=C(Nc1ccc(N2CCCCCC2)cc1)c1ccc[nH]1 | -11% | – | 0.58 µM [falling, single point]
10 | Cc1ccccc1-n1nnnc1SCc1cc(=O)n2ccsc2n1 | 17.7% | 0.231 µM [rising, full curve, poor fit] | 0.116 µM [falling, full curve, poor fit]
11 | C/C(=N/Nc1ccc([N+](=O)[O-])cc1)c1ccc(C)cc1C | -53.1% | 20.6 µM [falling, single point] | 16.4 µM [falling, single point]
12 | CC1CC(C)CN(S(=O)(=O)N2CCC(C(=O)NCc3ccco3)CC2)C1 (configuration not stated) | -14.2% | – | –
13 | Cn1cnc([N+](=O)[O-])c1N=C(N)N | 24.9% | – | –
14 | Cc1nnc(N(CCC#N)CCC#N)s1 | 2.34% | 0.00651 µM [falling, full curve, poor fit] | –
15 | O=C1NC(c2ccccc2)=CC(c2ccccc2)N1 (configuration not stated) | 19.7% | – | –
16 | C=CCCC(=O)Nc1ccc(COC(=O)N2CCOCC2)cc1 | 6.71% | – | 1.03 µM [falling, full curve]
17 | CC(=O)N1/C(=C/c2ccc(N(C)C)cc2)C(=O)c2ccccc21 | -5.91% | – | –
18 | CCc1nc(NCc2ccc3c(c2)OCO3)c2oc3ccccc3c2n1 | -19.7% | – | 0.461 µM [rising, single point]
19 | Cc1ccc(-n2ncc(C#N)c2/N=C/N(C)C)cc1 | 55.8% | 6.51 µM [rising, partial curve, poor fit] | 0.103 µM [rising, full curve]

Part of the list above, as comma-separated lines.
Row,Structure (SMILES),cell number change,AC50 [1],AC50 [2]
1,Cc1ccc(C(=O)Nc2ccc(N3CCN(S(C)(=O)=O)CC3)cc2)cc1,-73.5%,"29.1 µM [falling, single point]","10.3 µM [falling, single point]"
2,CCCC(=O)Nc1ccc(-c2nc3cc(C)ccc3o2)cc1,-11.6%,–,"2.06 µM [rising, partial curve]"
3,Cc1cc(=O)oc2cc(NC(=O)C(C)Oc3ccc(F)cc3)ccc12 (configuration not stated),41.7%,"11.6 µM [rising, partial curve]","20.6 µM [rising, single point]"
4,CC(C)c1nn2c(=O)cc(COc3cccc(NC(=O)c4ccco4)c3)nc2s1,–,–,"6.51 µM [falling, full curve]"
6,CC1CCN(c2ccc(-c3ccc(NC(=O)c4ccco4)cc3)nn2)CC1,22.8%,–,"16.4 µM [rising, partial curve, poor fit]"
7,COc1ccc(S(=O)(=O)Nc2ccc(-c3ccc(N4CCCC4)nn3)cc2)cc1C,7.07%,"4.11 µM [rising, single point]",–
9,O=C(Nc1ccc(N2CCCCCC2)cc1)c1ccc[nH]1,-11%,–,"0.58 µM [falling, single point]"
11,C/C(=N/Nc1ccc([N+](=O)[O-])cc1)c1ccc(C)cc1C,-53.1%,"20.6 µM [falling, single point]","16.4 µM [falling, single point]"
12,CC1CC(C)CN(S(=O)(=O)N2CCC(C(=O)NCc3ccco3)CC2)C1 (configuration not stated),-14.2%,–,–
14,Cc1nnc(N(CCC#N)CCC#N)s1,2.34%,"0.00651 µM [falling, full curve, poor fit]",–
15,O=C1NC(c2ccccc2)=CC(c2ccccc2)N1 (configuration not stated),19.7%,–,–
17,CC(=O)N1/C(=C/c2ccc(N(C)C)cc2)C(=O)c2ccccc21,-5.91%,–,–
18,CCc1nc(NCc2ccc3c(c2)OCO3)c2oc3ccccc3c2n1,-19.7%,–,"0.461 µM [rising, single point]"

Not a retest: an excerpt of the list.
Row | Structure (SMILES) | cell number change | AC50 [1] | AC50 [2]
7 | COc1ccc(S(=O)(=O)Nc2ccc(-c3ccc(N4CCCC4)nn3)cc2)cc1C | 7.07% | 4.11 µM [rising, single point] | –
8 | O=C(Nc1ccccc1)OCc1cc(-c2ccccc2Cl)on1 | 18.2% | – | 6.51 µM [rising, single point]

(listing goes on)

Row | Structure (SMILES) | cell number change | AC50 [1] | AC50 [2]
20 | Cc1nn(Cc2c(Cl)cccc2Cl)c(C)c1N | 10.6% | 6.51 µM [falling, single point] | 3.66 µM [falling, single point]
21 | O=C1CCCC2=C1C(c1ccc(O)c(O)c1)c1c(ccc3ncccc13)N2 (configuration not stated) | -61.9% | 29.1 µM [falling, single point] | –
22 | O=C1c2ccccc2C(Nc2cccc(C(F)(F)F)c2)N1Cc1ccco1 (configuration not stated) | – | 6.51 µM [rising, single point] | 0.116 µM [rising, full curve, poor fit]
23 | O=C(CCl)N1N=C(c2ccco2)CC1c1ccco1 (configuration not stated) | -5.56% | – | 20.6 µM [falling, partial curve]
24 | COc1ccc(CN2C(=O)CC(C(=O)NCCc3ccc(S(N)(=O)=O)cc3)SC2=Nc2ccccc2)cc1 (configuration not stated) | -3.15% | – | –
25 | CC(C)C[C@H](NC(=O)OC(C)(C)C)C(=O)N[C@@H](CO)[C@H](O)[C@@H]1C[C@@H]1C(=O)NC1CCCCC1 | 0.971% | – | –
26 | CCCCn1c(C)nc2cc(S(=O)(=O)N3CCOCC3)ccc21 | -34.6% | 29.1 µM [falling, single point] | 29.1 µM [falling, single point]
27 | C=CCN1c2ccccc2[C@]23C[C@@H](C(=O)OC)N(C(=O)c4ccc(Br)cc4)C2=NC(C(=O)OC)=C(C(=O)OC)[C@H]13 | -54.9% | 6.51 µM [falling, partial curve] | 9.2 µM [falling, partial curve]
28 | N#Cc1c(C(F)(F)F)cc(-c2ccccc2Cl)[nH]c1=O | -41% | 7.31 µM [falling, partial curve] | 9.2 µM [falling, partial curve]
29 | COc1ccccc1OCC(O)CO (configuration not stated) | – | – | 2.91 µM [rising, partial curve]
30 | COC(=O)c1[nH]c2ccc(F)cc2c1NC(=O)CCN1CC(C)OC(C)C1 (configuration not stated) | -10.7% | – | –
31 | Cc1cc(NC(=O)COC(=O)c2cc([N+](=O)[O-])ccc2N2CCOCC2)ccc1Br | 15.1% | 1.64 µM [rising, partial curve] | 1.03 µM [rising, full curve]
32 | CCn1c(/C=C2\C(=O)N(C)c3ccccc32)nc2ccccc2c1=O | 3.29% | – | –
33 | O=S(=O)(NCC(c1cccnc1)N1CCN(c2ccccc2)CC1)c1cccs1 (configuration not stated) | 21.6% | 0.116 µM [rising, full curve, poor fit] | 1.3 µM [rising, full curve]
34 | c1ccc(C(c2nnnn2C2CCCC2)N2CCCCCC2)nc1 (configuration not stated) | -13.5% | – | –
35 | O=[N+]([O-])c1ccc(CN2CCN(c3ccc4ccccc4n3)CC2)cc1 | 16.1% | – | 0.517 µM [rising, full curve, poor fit]
36 | Cc1cc(=O)c(C(=O)O)nn1-c1ccccc1C(F)(F)F | 7.26% | – | 6.51 µM [rising, single point]
37 | O=C(Cn1ncc(N2CCOCC2)c(Br)c1=O)c1ccc(Cl)cc1 | 14% | 4.61 µM [falling, single point] | 3.26 µM [falling, single point]
38 | CC(=O)Nc1sc(/C(C#N)=C/c2ccc(Cl)c(Cl)c2)nc1-c1ccc(C)cc1 | -71.2% | 8.2 µM [falling, partial curve] | 29.1 µM [falling, partial curve, poor fit]

Row | Structure (SMILES) | cell number change | AC50 [1] | AC50 [2]
39 | CCN1C(=O)C(=O)N(CC(=O)Nc2ccccc2Oc2ccccc2)C1=O | 54.4% | 5.8 µM [rising, full curve, poor fit] | 6.51 µM [rising, full curve]
40 | Cc1ccc(N(C(=O)CC2NC(=O)NC2=O)C2(C(=O)NC3CCCC3)CCCCC2)cc1 (configuration not stated) | – | 0.58 µM [falling, single point] | –
41 | CCN(CC)CCNC(=O)c1cccc(NC(=O)C(=O)c2ccccc2NC(C)=O)c1 | -49.4% | 32.6 µM [falling, partial curve, poor fit] | –
42 | Cc1ccc(S(C)=O)cc1-n1c(=O)n(Cc2ccccc2)c(=O)c2[nH]cnc21 (configuration not stated) | 4.17% | – | 29.1 µM [falling, single point]
43 | Cc1cc(NC(=O)CN2CCN(c3cccc(Cl)c3)CC2)no1 | -14% | – | –
44 | Nc1c(-c2ccccc2)cnn1C1CCS(=O)(=O)C1 (configuration not stated) | -18.8% | 6.51 µM [falling, partial curve, poor fit] | 0.731 µM [rising, full curve, poor fit]
45 | COc1cc2nc(NC(=O)c3ccc(Cl)cc3)sc(=O)c2cc1OC | 47.5% | 13 µM [rising, partial curve, poor fit] | 20.6 µM [rising, single point]
46 | CN1CCN(CC(=O)Nc2sc3c(c2C#N)CCC(C(C)(C)C)C3)CC1 (configuration not stated) | -26.3% | 0.651 µM [falling, full curve, poor fit] | 0.651 µM [falling, single point]
47 | Cc1ccccc1OCC(=O)N1CCCc2ccccc21 | -33.3% | 29.1 µM [falling, single point] | 20.6 µM [rising, single point]
48 | CCOc1ccccc1NC(=O)CCn1nc(C)c(S(=O)(=O)N2CCCCC2)c1C | 0.306% | – | –
49 | COc1ccccc1NC(=O)CSc1nc(=O)n(CCN(C)C)c2c1CCCC2 | -25% | 1.64 µM [falling, single point] | –
50 | Cc1ccc(C(C)C)c(OCC(=O)NN=C2CCCC2)c1 | -13.2% | – | 6.51 µM [rising, partial curve, poor fit]
51 | O=C(CSc1ncccn1)NC(=O)NCc1ccco1 | – | 6.51 µM [falling, single point] | 6.51 µM [falling, single point]
52 | CC(C)(C)OC(=O)NNC1CC(=O)N(c2ccccc2F)C1=O (configuration not stated) | 101% | 23.1 µM [rising, single point] | –
53 | CC1CCN(C(=O)Cn2cc3c(n2)CCCC3)CC1 | -31.7% | 29.1 µM [falling, single point] | 29.1 µM [falling, single point]
54 | COc1ccc(S(=O)(=O)N(CC(=O)NC2CC2)Cc2ccccc2)cc1 | -2.52% | – | –
55 | COc1ccccc1C(=O)NCC(=O)OCCCOC(=O)CNC(=O)c1ccccc1OC | -26.7% | – | 32.6 µM [falling, single point]
56 | COc1ccccc1NS(=O)(=O)c1cccc(C(=O)N/N=C/c2ccc(OCC(=O)O)cc2)c1 | 51.9% | 29.1 µM [rising, single point] | –
57 | Cc1cc(NC(=O)c2ccccc2Oc2ccccc2)no1 | – | 2.31 µM [rising, single point] | –
